# Measured values reported in the supplement of paper PMC12067093, “Discovery and optimisation of a covalent ligand for TRIM25 and its application to targeted protein ubiquitination” (Chemical Science, 2025).
# Sequences of proteins named here, by UniProt entry; tags and fusion partners are left off. A change or cut given only in a name is not applied to a line headed by its entry.
# UniProt Q9NZ32, whole entry, looked up: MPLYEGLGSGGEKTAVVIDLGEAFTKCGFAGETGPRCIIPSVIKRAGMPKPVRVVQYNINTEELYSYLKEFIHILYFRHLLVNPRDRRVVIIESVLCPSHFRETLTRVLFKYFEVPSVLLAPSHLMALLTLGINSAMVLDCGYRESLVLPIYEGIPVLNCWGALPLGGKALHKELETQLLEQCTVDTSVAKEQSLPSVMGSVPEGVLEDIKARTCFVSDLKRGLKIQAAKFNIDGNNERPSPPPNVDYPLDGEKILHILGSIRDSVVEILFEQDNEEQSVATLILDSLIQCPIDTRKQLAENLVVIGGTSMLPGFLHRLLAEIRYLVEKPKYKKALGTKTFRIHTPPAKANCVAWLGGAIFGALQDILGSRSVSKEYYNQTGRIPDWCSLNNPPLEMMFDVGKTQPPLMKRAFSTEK
# UniProt P51825: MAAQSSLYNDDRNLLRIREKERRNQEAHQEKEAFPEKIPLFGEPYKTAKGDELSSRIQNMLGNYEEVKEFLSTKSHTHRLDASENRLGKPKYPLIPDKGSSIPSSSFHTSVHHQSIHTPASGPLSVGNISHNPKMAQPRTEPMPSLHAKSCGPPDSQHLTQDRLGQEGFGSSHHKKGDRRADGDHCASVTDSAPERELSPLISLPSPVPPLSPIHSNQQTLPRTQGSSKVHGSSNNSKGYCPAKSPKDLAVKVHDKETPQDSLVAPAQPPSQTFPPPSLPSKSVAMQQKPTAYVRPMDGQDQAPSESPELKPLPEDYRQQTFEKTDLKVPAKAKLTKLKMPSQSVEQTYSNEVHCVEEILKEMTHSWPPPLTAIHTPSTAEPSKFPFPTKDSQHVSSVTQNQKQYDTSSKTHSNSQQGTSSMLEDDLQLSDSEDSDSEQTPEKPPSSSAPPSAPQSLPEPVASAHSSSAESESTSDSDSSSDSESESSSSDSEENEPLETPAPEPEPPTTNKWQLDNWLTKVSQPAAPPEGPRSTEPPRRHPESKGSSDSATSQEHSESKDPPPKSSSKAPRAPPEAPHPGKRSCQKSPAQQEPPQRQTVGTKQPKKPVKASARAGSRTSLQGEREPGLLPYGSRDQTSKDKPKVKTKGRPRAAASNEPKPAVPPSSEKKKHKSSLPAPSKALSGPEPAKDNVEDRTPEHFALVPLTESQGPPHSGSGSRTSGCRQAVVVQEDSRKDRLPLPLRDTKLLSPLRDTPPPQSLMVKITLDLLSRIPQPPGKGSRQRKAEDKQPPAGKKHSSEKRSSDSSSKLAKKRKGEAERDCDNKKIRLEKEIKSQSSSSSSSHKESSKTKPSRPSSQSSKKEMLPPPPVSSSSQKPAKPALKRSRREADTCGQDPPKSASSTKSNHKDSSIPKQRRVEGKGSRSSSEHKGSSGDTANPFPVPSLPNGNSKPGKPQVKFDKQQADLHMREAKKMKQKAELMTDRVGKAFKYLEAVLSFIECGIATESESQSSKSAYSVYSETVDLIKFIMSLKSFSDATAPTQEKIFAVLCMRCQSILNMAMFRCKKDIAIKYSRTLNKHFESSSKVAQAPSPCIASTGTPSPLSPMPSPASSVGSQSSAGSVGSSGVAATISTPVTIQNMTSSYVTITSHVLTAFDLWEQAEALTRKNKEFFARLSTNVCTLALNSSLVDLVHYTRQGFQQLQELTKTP
# UniProt P11766: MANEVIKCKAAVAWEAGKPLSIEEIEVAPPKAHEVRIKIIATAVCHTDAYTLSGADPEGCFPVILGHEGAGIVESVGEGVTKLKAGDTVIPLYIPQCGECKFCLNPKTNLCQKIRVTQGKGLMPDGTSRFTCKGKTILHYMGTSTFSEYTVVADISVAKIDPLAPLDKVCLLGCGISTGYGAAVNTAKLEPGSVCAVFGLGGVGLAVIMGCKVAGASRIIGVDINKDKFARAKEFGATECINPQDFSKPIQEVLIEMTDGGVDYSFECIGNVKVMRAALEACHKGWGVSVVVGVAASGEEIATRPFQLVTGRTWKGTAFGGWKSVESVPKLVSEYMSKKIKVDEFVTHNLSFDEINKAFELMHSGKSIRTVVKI
# UniProt Q15067: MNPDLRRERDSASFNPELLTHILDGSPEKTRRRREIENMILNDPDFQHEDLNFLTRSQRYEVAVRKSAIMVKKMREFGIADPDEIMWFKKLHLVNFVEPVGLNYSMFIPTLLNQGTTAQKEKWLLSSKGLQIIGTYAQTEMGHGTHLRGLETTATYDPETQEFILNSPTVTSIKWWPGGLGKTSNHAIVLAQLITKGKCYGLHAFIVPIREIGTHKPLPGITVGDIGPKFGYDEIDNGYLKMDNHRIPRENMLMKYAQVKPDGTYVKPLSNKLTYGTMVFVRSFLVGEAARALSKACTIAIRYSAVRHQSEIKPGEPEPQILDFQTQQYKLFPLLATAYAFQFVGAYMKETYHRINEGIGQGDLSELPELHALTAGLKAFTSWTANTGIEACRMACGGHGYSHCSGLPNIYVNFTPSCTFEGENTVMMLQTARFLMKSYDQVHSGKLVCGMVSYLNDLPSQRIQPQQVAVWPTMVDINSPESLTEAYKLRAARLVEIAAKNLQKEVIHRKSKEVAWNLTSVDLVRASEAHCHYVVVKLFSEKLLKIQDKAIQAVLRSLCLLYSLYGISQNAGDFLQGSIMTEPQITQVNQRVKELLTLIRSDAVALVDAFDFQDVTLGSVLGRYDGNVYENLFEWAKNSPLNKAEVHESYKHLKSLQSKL
# UniProt P33121: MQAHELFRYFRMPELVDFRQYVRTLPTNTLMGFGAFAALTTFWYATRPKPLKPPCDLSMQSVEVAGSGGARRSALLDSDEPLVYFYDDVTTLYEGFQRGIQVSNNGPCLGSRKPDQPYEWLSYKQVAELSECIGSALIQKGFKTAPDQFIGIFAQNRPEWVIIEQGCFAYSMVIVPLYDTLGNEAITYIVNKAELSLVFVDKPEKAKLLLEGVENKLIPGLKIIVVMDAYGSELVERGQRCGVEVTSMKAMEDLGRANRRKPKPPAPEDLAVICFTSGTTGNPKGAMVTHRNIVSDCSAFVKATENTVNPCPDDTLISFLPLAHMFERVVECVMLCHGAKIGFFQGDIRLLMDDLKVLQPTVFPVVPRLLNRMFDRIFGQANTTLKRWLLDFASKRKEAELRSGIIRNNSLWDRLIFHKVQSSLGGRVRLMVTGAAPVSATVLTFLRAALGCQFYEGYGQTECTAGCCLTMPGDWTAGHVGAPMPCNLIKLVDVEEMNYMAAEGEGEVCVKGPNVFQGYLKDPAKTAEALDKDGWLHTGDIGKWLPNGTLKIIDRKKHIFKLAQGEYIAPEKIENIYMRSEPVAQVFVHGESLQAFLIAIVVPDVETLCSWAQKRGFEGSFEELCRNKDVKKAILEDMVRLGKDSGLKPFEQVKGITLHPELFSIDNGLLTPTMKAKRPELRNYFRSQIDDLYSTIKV
# UniProt P11117: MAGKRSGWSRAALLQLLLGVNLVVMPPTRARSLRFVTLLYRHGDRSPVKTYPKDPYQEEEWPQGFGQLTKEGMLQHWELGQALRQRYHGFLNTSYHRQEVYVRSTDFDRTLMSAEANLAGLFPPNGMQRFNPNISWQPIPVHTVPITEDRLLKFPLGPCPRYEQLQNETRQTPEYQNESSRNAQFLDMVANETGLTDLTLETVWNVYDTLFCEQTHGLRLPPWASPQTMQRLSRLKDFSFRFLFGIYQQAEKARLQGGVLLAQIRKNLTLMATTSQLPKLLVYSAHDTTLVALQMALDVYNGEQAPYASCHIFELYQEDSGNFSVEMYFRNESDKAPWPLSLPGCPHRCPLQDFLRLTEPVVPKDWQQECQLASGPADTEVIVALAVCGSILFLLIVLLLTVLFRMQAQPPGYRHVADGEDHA
# UniProt P78536: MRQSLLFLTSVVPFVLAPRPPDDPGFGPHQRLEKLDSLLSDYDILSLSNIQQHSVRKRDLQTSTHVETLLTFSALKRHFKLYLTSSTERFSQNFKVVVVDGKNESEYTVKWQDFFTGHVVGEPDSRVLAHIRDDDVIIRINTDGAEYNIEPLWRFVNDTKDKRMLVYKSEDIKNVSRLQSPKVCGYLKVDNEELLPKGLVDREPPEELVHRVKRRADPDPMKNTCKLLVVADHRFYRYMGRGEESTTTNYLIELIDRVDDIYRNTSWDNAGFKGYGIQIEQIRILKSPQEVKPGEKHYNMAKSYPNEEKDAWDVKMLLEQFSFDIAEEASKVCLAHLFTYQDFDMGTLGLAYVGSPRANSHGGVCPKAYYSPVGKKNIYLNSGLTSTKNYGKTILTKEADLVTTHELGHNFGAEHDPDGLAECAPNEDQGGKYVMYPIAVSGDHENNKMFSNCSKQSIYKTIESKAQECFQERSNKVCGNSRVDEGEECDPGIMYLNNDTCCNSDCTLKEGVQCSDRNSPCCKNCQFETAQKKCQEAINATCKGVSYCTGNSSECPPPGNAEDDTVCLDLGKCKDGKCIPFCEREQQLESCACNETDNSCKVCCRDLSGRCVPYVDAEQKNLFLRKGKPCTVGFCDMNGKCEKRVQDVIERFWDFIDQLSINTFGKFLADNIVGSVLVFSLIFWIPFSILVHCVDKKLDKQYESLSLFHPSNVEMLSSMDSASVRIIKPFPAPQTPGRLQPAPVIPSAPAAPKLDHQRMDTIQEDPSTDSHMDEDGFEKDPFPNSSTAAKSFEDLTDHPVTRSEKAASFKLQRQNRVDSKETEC
# The other results are listed elsewhere or left out.
# Compound: CC1Cc2ccccc2N1C(=O)C1CCCN(C1)C(=O)CCl (mixture of isomers) [TRIM25 ligand 11 (diastereomer mixture)]
# Experiment: probe-labelled cysteine peptide fold change vs DMSO (competition) (log2 fold change); higher = less target engagement (more negative = stronger competition)
# Conditions: THP-1, incubation time: 4 h
# 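Also: competitive chemoproteomic profiling in live THP-1 cells with an iodoacetamide desthiobiotin (IA-DTB) probe, comparing probe-labelled peptide intensities in compound-treated cells against DMSO-treated controls.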
target,measurement,setting,value
ACTR10_Q9NZ32_388_IPDWCSLNNPPLEMMFDVGK (UniProt Q9NZ32),probe-labelled cysteine peptide fold change,10 µM,0.247
same,probe-labelled cysteine peptide fold change,50 µM,-0.0923
AFF1_P51825_892_EADTCGQDPPK (UniProt P51825),probe-labelled cysteine peptide fold change,10 µM,-0.1
same,probe-labelled cysteine peptide fold change,50 µM,-0.0158
ADH5_P11766_97_AGDTVIPLYIPQCGECK (UniProt P11766),probe-labelled cysteine peptide fold change,10 µM,-0.0807
same,probe-labelled cysteine peptide fold change,50 µM,-0.0814
ACOX1_Q15067_199_CYGLHAFIVPIR (UniProt Q15067),probe-labelled cysteine peptide fold change,10 µM,-0.166
same,probe-labelled cysteine peptide fold change,50 µM,-0.0114
ACSL1_P33121_274_KPKPPAPEDLAVICFTSGTTGNPK (UniProt P33121),probe-labelled cysteine peptide fold change,10 µM,-0.0894
same,probe-labelled cysteine peptide fold change,50 µM,-0.0513
ACP2_P11117_345_APWPLSLPGCPHR (UniProt P11117),probe-labelled cysteine peptide fold change,10 µM,-0.172
same,probe-labelled cysteine peptide fold change,50 µM,0.0455
ADAM17_P78536_333_VCLAHLFTYQDFDMGTLGLAYVGSPR (UniProt P78536),probe-labelled cysteine peptide fold change,10 µM,-0.053
same,probe-labelled cysteine peptide fold change,50 µM,0.0473

# 2 entries from above in a different format.
target	measurement	setting	value
ACTR10_Q9NZ32_388_IPDWCSLNNPPLEMMFDVGK (UniProt Q9NZ32)	probe-labelled cysteine peptide fold change	10 µM	0.247
same	probe-labelled cysteine peptide fold change	50 µM	-0.0923
